From patent US11985975B1, “N-[(2-{[(furan-ylcarbonyl)carbamothioyl]amino }phenyl)carbamothioyl]furan-2-carboxamide as an eco-friendly insecticidal agent against Spodoptera littoralis (boisd.)” (KING FAISAL UNIVERSITY, priority 2023, dated 2024)

System: Spodoptera littoralis larvae (second and fourth instars)
Experiment: Insecticidal bioassay screening (castor leaf dip), laboratory strain of cotton leafworm
Assay type: in vivo
Conditions: after 72 hrs of treatment, LDP line
Method: Five concentrations (200, 100, 50, 25, 12.5 ppm) were designed for this synthetic compound and the reference Diflubenzuron compound as the dynamic ingredients based on ppm via diluting the commercial formulation.
In this experiment, castor leaves are immersed in each of the previously prepared concentrations of the components for 10 seconds and then left to dry for 60 minutes. Larvae of the second and fourth instars of each checked strain are prepared with treated leaves in gauze-covered glass containers for 72 hrs. An untreated control is made in which leaves are dipped in triton x-100 and distilled water only. Then the preserved leaves were removed & fresh, untreated leaves were provided for 72 hours. Three replicates (10 larvae each) were checked for each concentration. Daily inspection was carried out for all treatments and mortality percentages were recorded 3 days (72 hours) after treatment. The average mortality percentage was corrected employing Abbott's formula. The corrected mortality rate for each of the previously synthesized compounds is statistically calculated according to Finney (1970). Through this rate, the corresponding concentration test lines (LDP lines) are assessed.

SMILES | Slope (2nd instar larvae) | Slope (4th instar larvae)
O=C(NC(=S)Nc1ccccc1NC(=S)NC(=O)c1ccco1)c1ccco1 [Compound 2, N-[(2-{[(furan-ylcarbonyl)carbamothioyl]amino}phenyl)carbamothioyl]furan-2-carboxamide] | 0.98 ± 0.36 | 0.99 ± 0.35
O=C(NC(=O)c1c(F)cccc1F)Nc1ccc(Cl)cc1 [Diflubenzuron, reference compound] | 1.20 ± 0.46 | 1.2 ± 0.36
